From PubChem BioAssay AID504834 (National Center for Advancing Translational Sciences (NCATS), 2011)
Hit rate of the full screen: of about 320,000 compounds, about 22,000 (6.9%) were called active. This list was built around the results that the source calls inconclusive (neither active nor inactive); the mix of calls is not that of the screen. Calls follow the shape of the dose curve; as a rule, active = well fitted inhibition curve with a large enough effect; inconclusive = small, poorly fitted or top-dose-only effect, or another doubt; inactive = no such curve, though single readings can be large or run the other way. A potency beside an inconclusive call is a rough fit, not a confirmed value.

Experiment: Primary qHTS for delayed death inhibitors of the malarial parasite plastid, 96 hour incubation
Conditions: P. falciparum luciferase reporter growth; series mostly up to 28.7 µM
Outline: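 96 h incubation, 37 C, 5% CO2, of luciferase-reporter P. falciparum-infected RBCs (2% hematocrit, 0.05% parasitemia final) with test compounds; endpoint luminescence.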
Potency is read from the fitted curve at half-maximal effect.

**Q.** Which Potency does the source give for Cc1nn(-c2ccccn2)c2c1C(c1ccccn1)C1=C(CCCC1=O)N2 (stereo not given) here?
**A.** The Potency was inconclusive: 8.28 µM [inhibitor, single point].

**Q.** Which Potency does the source give for CCN(CC)C(=O)Oc1cc(=O)n(C)c2ccccc12 here?
**A.** Its Potency is “inactive”.

**Q.** With COc1cccc(CNC(=S)Nc2cc(C)cc(C)c2)c1 as the molecule, how does the Potency read?
**A.** Its Potency is inconclusive: 2.94 µM [inhibitor, full curve].

**Q.** For CC(C)(C)NC[C@@H](O)COc1ccccc1C1CCCC1, which Potency is on record?
**A.** The Potency was active: 2.28 µM.

**Q.** Which Potency does the source give for COc1ccc(C(CNC(=O)c2ccc(Cl)s2)N2CCOCC2)cc1 (stereo not given) here?
**A.** Its Potency is “inactive”.

**Q.** With Cc1ccc(-n2ccnc2SCC(=O)N(CC(C)C)C2CCS(=O)(=O)C2)c(C)c1 (stereo not given) as the molecule, how does the Potency read?
**A.** The Potency was active: 4.15 µM.

**Q.** For CC(=O)N(C)c1ccc(NC(=O)/C=C/c2ccccc2Cl)cc1, which Potency is on record?
**A.** The Potency was inconclusive: 18.5 µM [inhibitor, single point].

**Q.** Which Potency does the source give for COc1ccc(CCNS(=O)(=O)c2ccc(-c3ccc(=O)[nH]n3)o2)cc1OC here?
**A.** Its Potency is inconclusive: 10.4 µM [inhibitor, single point].

**Q.** With Nn1c(-c2ccc(F)cc2)nc2ccccc2c1=O as the molecule, how does the Potency read?
**A.** The Potency was inconclusive: 2.08 µM [inhibitor, full curve].

**Q.** With Cc1cc(C(=O)Nc2sc3c(c2C#N)CCCCC3)cs1 as the molecule, how does the Potency read?
**A.** The Potency was “inactive”.

**Q.** For CN(C)Cc1nc2ccccc2c(=O)n1Cc1nc(-c2cc3ccccc3o2)cs1, which Potency is on record?
**A.** The Potency was inconclusive: 13.1 µM [inhibitor, single point].

**Q.** For COc1ccc(CCNC(=O)Cc2cccs2)cc1, which Potency is on record?
**A.** The Potency was “inactive”.

**Q.** With CC(C)CN(C(=O)CC(C)c1ccccc1)c1c(N)n(Cc2ccccc2)c(=O)[nH]c1=O (stereo not given) as the molecule, how does the Potency read?
**A.** Its Potency is inconclusive: 14.7 µM [inhibitor, partial curve, poor fit].

**Q.** Which Potency does the source give for CC(=O)c1ccc(NC(=O)C(Cc2ccccc2)NC(=O)c2ccco2)cc1 (stereo not given) here?
**A.** Its Potency is inconclusive: 13.1 µM [inhibitor, partial curve, poor fit].

**Q.** With CCN(CC)S(=O)(=O)c1ccc(N/N=C(\C)c2cccnc2)nc1 as the molecule, how does the Potency read?
**A.** Its Potency is “inactive”.

**Q.** For CCCCn1c(N)c(N(CCOC)C(=O)c2c(C)noc2C)c(=O)[nH]c1=O, which Potency is on record?
**A.** The Potency was “inactive”.

**Q.** For O=C(COc1ccc(Cl)cc1)Nc1cccc(-c2ccc3nncn3n2)c1, which Potency is on record?
**A.** Its Potency is inconclusive: 0.0033 µM [inhibitor, full curve, poor fit].

**Q.** For COc1cc(/C=N/NC(=O)c2ccc(CN3C(=O)c4cccc5cccc3c45)cc2)cc(OC)c1O, which Potency is on record?
**A.** Its Potency is inconclusive: 10.4 µM [inhibitor, single point].

**Q.** With CCCn1c2c(c(O)c(C(=O)Nc3ccc(OCC)cc3)c1=O)CCCC2 as the molecule, how does the Potency read?
**A.** The Potency was inconclusive: 0.0037 µM [inhibitor, full curve, poor fit].

**Q.** For CCC1=NN=C(c2ccc(F)cc2)C(c2c[nH]c3ccccc23)N1O (stereo not given), which Potency is on record?
**A.** The Potency was “inactive”.

**Q.** For Cc1ccc2nc(N(CCCN(C)C)C(=O)c3cc4ccccc4oc3=O)sc2c1, which Potency is on record?
**A.** Its Potency is active: 10.4 µM.

**Q.** For COC(=O)/C(=C/c1c[nH]c2ccccc12)[N+](=O)[O-], which Potency is on record?
**A.** The Potency was inconclusive: 0.0828 µM [inhibitor, full curve, poor fit].

**Q.** For Cc1c(C(=O)N2CCCCCC2)c(S(=O)(=O)Nc2ccc(F)cc2)c(C)n1C, which Potency is on record?
**A.** Its Potency is inconclusive: 9.28 µM [inhibitor, partial curve, poor fit].

**Q.** With CN(CC(=O)Nc1cccc(S(=O)(=O)N2CCCCC2)c1)Cc1ccc(F)cc1 as the molecule, how does the Potency read?
**A.** Its Potency is active: 9.28 µM.

**Q.** Which Potency does the source give for COc1ccc(OC)c(S(=O)(=O)N2CCC(NC(=O)c3ccccc3)CC2)c1 here?
**A.** The Potency was inconclusive: 16.5 µM [inhibitor, single point].

**Q.** For COc1ccc(S(=O)(=O)Nc2c(C)n(C)n(-c3ccccc3)c2=O)cc1Br, which Potency is on record?
**A.** Its Potency is inconclusive: 18.5 µM [inhibitor, single point].

**Q.** For O=C(N/N=C/c1ccc(N2CCCC2)c([N+](=O)[O-])c1)c1cccnc1, which Potency is on record?
**A.** The Potency was inconclusive: 4.15 µM [inhibitor, single point].

**Q.** For CCn1c(SCc2ccc(C(=O)OC)o2)nc2sc3c(c2c1=O)CCCC3, which Potency is on record?
**A.** The Potency was active: 1.04 µM.

**Q.** With CC(c1nnc(SCC(=O)Nc2ccc3[nH]c(=O)[nH]c3c2)n1Cc1ccccc1)N(C)C (stereo not given) as the molecule, how does the Potency read?
**A.** Its Potency is “inactive”.

**Q.** Which Potency does the source give for Cc1ccc(C)c(OCCn2cc(/C=C(\C#N)C(=O)NCc3cccs3)c3ccccc32)c1 here?
**A.** Its Potency is active: 3.29 µM.

**Q.** For Cc1ccc(NC(=O)CCCN2C(=O)NC(C)(C)C2=O)cc1, which Potency is on record?
**A.** Its Potency is “inactive”.

**Q.** For c1ccc2oc(-c3ccn[nH]3)cc2c1, which Potency is on record?
**A.** Its Potency is “inactive”.

**Q.** With Cc1ccccc1NC(=O)Cc1nc(COC(=O)c2cc([N+](=O)[O-])ccc2NCCO)cs1 as the molecule, how does the Potency read?
**A.** Its Potency is inconclusive: 9.28 µM [inhibitor, single point].

**Q.** Which Potency does the source give for CCN1CCN(C(=O)c2cc(S(=O)(=O)N3CCCCC3)ccc2Cl)CC1 here?
**A.** Its Potency is active: 10.4 µM.

**Q.** For Brc1ccc(-c2csc(NNC3=NCCCCC3)n2)cc1, which Potency is on record?
**A.** The Potency was inconclusive: 13.1 µM [inhibitor, partial curve, poor fit].

**Q.** For O=C(CSc1ncccn1)NCc1ccc2c(c1)OCO2, which Potency is on record?
**A.** The Potency was inconclusive: 1.85 µM [inhibitor, partial curve].

**Q.** Which Potency does the source give for COc1ccc(N2CCN(C(=O)C(=O)c3cn(CC(=O)N4CCCCCC4)c4ccccc34)CC2)cc1 here?
**A.** Its Potency is active: 10.4 µM.

**Q.** With O=C(NCc1cccnc1)c1ccc(-c2cccc(Cl)c2Cl)o1 as the molecule, how does the Potency read?
**A.** Its Potency is “inactive”.

**Q.** With CCCCC(O)(CCN1CCOCC1)c1ccc(Cl)cc1 (stereo not given) as the molecule, how does the Potency read?
**A.** The Potency was inconclusive: 0.586 µM [inhibitor, full curve, poor fit].

**Q.** Which Potency does the source give for CCOC(=O)C(C)Sc1nc2c(c(-c3cccs3)c1C#N)CCC2 (stereo not given) here?
**A.** The Potency was active: 10.4 µM.

**Q.** With COCc1ccc(C(=O)N2CCCC(N(C)CCc3ccc(OC)c(OC)c3)C2)s1 (stereo not given) as the molecule, how does the Potency read?
**A.** Its Potency is inconclusive: 18.5 µM [inhibitor, single point].

**Q.** Which Potency does the source give for CC1CCCN(C(=O)c2cn(-c3ccccc3)nc2-c2cccnc2)C1 (stereo not given) here?
**A.** Its Potency is inconclusive: 8.28 µM [inhibitor, partial curve].

**Q.** For CCCCCCCC(=O)NC(Oc1ccccc1[N+](=O)[O-])C(Cl)(Cl)Cl (stereo not given), which Potency is on record?
**A.** Its Potency is inconclusive: 0.928 µM [inhibitor, partial curve, poor fit].

**Q.** With O=C(O)/C=C/c1ccc(S(=O)(=O)N2CCN(CCN3C(=O)C4C5C=CC(C5)C4C3=O)CC2)cc1 (stereo not given) as the molecule, how does the Potency read?
**A.** Its Potency is active: 1.85 µM.

**Q.** For C[C@@H](NC(=O)c1cc2c([nH]c3ccccc32)c(-c2ccccc2)n1)C(=O)O, which Potency is on record?
**A.** The Potency was inconclusive: 4.15 µM [inhibitor, partial curve, poor fit].

**Q.** For COc1ccc(NC(=O)CNc2ccccc2N2CCCC2=O)cc1S(=O)(=O)N1CCOCC1, which Potency is on record?
**A.** Its Potency is inconclusive: 18.5 µM [inhibitor, single point].

**Q.** With Cc1ccc(N2C(=O)CC(Nc3cccc4ccccc34)C2=O)cc1 (stereo not given) as the molecule, how does the Potency read?
**A.** The Potency was “inactive”.

**Q.** For CCCN=Cc1sc2ccc(OCC)cc2c1O, which Potency is on record?
**A.** Its Potency is “inactive”.

**Q.** Which Potency does the source give for FC(F)(F)c1ccc(NCCc2ccccc2)nc1 here?
**A.** The Potency was “inactive”.

**Q.** Which Potency does the source give for O=C1Nc2cc(C(=O)NCCN3CCCCCC3)ccc2S/C1=C\c1ccccc1 here?
**A.** The Potency was inconclusive: 7.38 µM [inhibitor, partial curve, poor fit].

**Q.** Which Potency does the source give for CC(C)=CC(=O)Nc1ccc(S(=O)(=O)Nc2onc(C)c2C)cc1 here?
**A.** The Potency was inconclusive: 20.8 µM [inhibitor, partial curve, poor fit].

**Q.** Which Potency does the source give for CCCCn1nc2cc(C(=O)NCc3ccccc3OC)ccc2c1OCC here?
**A.** Its Potency is inconclusive: 8.28 µM [inhibitor, partial curve, poor fit].

**Q.** Which Potency does the source give for Cc1cccc(C)c1NC(=O)NNC(=O)c1cc(C(C)(C)C)nn1Cc1ccccc1 here?
**A.** Its Potency is inconclusive: 9.28 µM [inhibitor, partial curve, poor fit].

**Q.** For CCOC(=O)c1c(NC(=S)N2CCOCC2)sc2c1CCN(C(=O)OCC)C2, which Potency is on record?
**A.** Its Potency is inconclusive: 10.4 µM [inhibitor, single point].

**Q.** Which Potency does the source give for Cc1cc(=O)[nH]c(N/N=C/CCc2ccccc2)n1 here?
**A.** The Potency was inconclusive: 14.7 µM [inhibitor, partial curve, poor fit].

**Q.** With Cc1ccc(C)c(CN2CCC(n3nnc4cc(F)ccc43)CC2)c1 as the molecule, how does the Potency read?
**A.** Its Potency is active: 13.1 µM.

**Q.** For CCCCC[C@H](O)/C=C/[C@@H]1[C@H]2C/C(=C/CCCC(=O)O)O[C@H]2C[C@H]1O, which Potency is on record?
**A.** Its Potency is “inactive”.

**Q.** For CCOc1nc(N=C(N)N)nc2c(C)cccc12, which Potency is on record?
**A.** Its Potency is active: 0.586 µM.

**Q.** With Cc1ccccc1-c1nc2sc(C)c(C)c2c(=O)o1 as the molecule, how does the Potency read?
**A.** Its Potency is inconclusive: 18.5 µM [inhibitor, single point].

**Q.** For CC(C)[C@H](NC(=O)C1CCN(S(=O)(=O)c2ccc(F)cc2)CC1)C(=O)NCc1ccco1, which Potency is on record?
**A.** Its Potency is “inactive”.

**Q.** Which Potency does the source give for CCC(Oc1ccccc1)C(=O)NCc1ccc(S(N)(=O)=O)cc1 (stereo not given) here?
**A.** The Potency was “inactive”.

**Q.** With Cc1cc(C)n2c(SCC(=O)N(CC(C)C)c3c(N)n(CC(C)C)c(=O)[nH]c3=O)nnc2n1 as the molecule, how does the Potency read?
**A.** Its Potency is “inactive”.

**Q.** For COc1c(C)cc(S(=O)(=O)N2CCOCC2)c(C)c1C, which Potency is on record?
**A.** Its Potency is inconclusive: 18.5 µM [inhibitor, partial curve, poor fit].

**Q.** Which Potency does the source give for NC(=O)[C@@H]1CCCN1C(=O)[C@H](Cc1cnc[nH]1)NC(=O)[C@@H]1CCC(=O)N1 here?
**A.** Its Potency is inconclusive: 3.01 µM [inhibitor, partial curve, poor fit].

**Q.** With COc1ccc(Cc2nnc(NC(=O)Nc3ccc(C)cc3)s2)cc1OC as the molecule, how does the Potency read?
**A.** The Potency was “inactive”.

**Q.** Which Potency does the source give for O=c1[nH]c2ccccc2c2nc(-c3cccc(S(=O)(=O)N4CCCC4)c3)nn12 here?
**A.** The Potency was inconclusive: 2.62 µM [inhibitor, partial curve, poor fit].

**Q.** For O=C(CN1CCN(S(=O)(=O)c2ccc(F)cc2)CC1)N1CCOCC1, which Potency is on record?
**A.** Its Potency is “inactive”.

**Q.** With Cc1ccc(S(=O)(=O)N2CCCCC2CCNC(=O)C(=O)NC2CCCC2)cc1 (stereo not given) as the molecule, how does the Potency read?
**A.** Its Potency is inconclusive: 11.7 µM [inhibitor, single point].

**Q.** Which Potency does the source give for O=C1c2ccccc2C(=O)N1CCCCSc1nnnn1-c1ccccc1 here?
**A.** Its Potency is inconclusive: 13.1 µM [inhibitor, single point].

**Q.** For CCC(C)(C(=O)NC1CCCC1)N(C)C(=O)c1ccccn1 (stereo not given), which Potency is on record?
**A.** Its Potency is inconclusive: 13.1 µM [inhibitor, single point].
